Patent US11173152B1, “Glutathione-coated nanoparticles for delivery of MKT-077 across the blood-brain barrier” (UNIVERSITY OF SOUTH FLORIDA, priority 2015, dated 2021)

Tested on: TRANSWELL in vitro BBB model, co-culture of RBE4 (rat brain endothelial) cells with C6 (rat astrocytoma) cells
Assay: Trans-endothelial electrical resistance (TEER) of […] BBB model
Format: cell-based
Settings: 48 hours, after treatment with 10 μM equivalent, n=4, mean ± SD

Which TEER after treatment does the source give for `CCn1c(=O)/c(=C2\Sc3ccccc3N2C)s/c1=C\c1cccc[n+]1CC.[Cl-]` [MKT-077] here?
The TEER after treatment was 294.56 ± 18.15 Ωcm^2.
